From paper PMC5548489 come the findings set out here.

Chains of the proteins cited; added tags and fusions are not shown.
UniProt P03372: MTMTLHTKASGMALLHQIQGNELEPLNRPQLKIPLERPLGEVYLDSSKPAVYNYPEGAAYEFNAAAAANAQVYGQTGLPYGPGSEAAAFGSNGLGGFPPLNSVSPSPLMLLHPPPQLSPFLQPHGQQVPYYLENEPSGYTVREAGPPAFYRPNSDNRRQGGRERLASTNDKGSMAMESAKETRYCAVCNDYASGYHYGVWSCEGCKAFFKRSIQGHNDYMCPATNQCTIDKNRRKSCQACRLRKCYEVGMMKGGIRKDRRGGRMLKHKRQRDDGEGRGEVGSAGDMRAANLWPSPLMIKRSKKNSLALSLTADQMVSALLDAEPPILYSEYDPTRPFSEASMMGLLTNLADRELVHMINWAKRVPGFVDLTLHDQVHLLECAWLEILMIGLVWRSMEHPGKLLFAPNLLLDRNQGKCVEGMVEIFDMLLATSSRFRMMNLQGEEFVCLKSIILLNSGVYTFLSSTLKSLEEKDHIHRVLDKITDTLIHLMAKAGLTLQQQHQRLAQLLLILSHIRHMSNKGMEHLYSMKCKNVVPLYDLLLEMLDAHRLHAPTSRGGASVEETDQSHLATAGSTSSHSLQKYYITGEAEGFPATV

These are yes or no findings as the source states them, for the method shown. Binding seen in cells or lysates may run through a third protein. Here binding means that the protein was enriched with, or labelled near, the bait; the list need not be complete.

First the molecules themselves.
B1: MED24 (protein, UniProt O75448 1-989)
chain: MKVVNLKQAILQAWKERWSDYQWAINMKKFFPKGATWDILNLADALLEQAMIGPSPNPLILSYLKYAISSQMVSYSSVLTAISKFDDFSRDLCVQALLDIMDMFCDRLSCHGKAEECIGLCRALLSALHWLLRCTAASAERLREGLEAGTPAAGEKQLAMCLQRLEKTLSSTKNRALLHIAKLEEASSWTAIEHSLLKLGEILANLSNPQLRSQAEQCGTLIRSIPTMLSVHAEQMHKTGFPTVHAVILLEGTMNLTGETQSLVEQLTMVKRMQHIPTPLFVLEIWKACFVGLIESPEGTEELKWTAFTFLKIPQVLVKLKKYSHGDKDFTEDVNCAFEFLLKLTPLLDKADQRCNCDCTNFLLQECGKQGLLSEASVNNLMAKRKADREHAPQQKSGENANIQPNIQLILRAEPTVTNILKTMDADHSKSPEGLLGVLGHMLSGKSLDLLLAAAAATGKLKSFARKFINLNEFTTYGSEESTKPASVRALLFDISFLMLCHVAQTYGSEVILSESRTGAEVPFFETWMQTCMPEEGKILNPDHPCFRPDSTKVESLVALLNNSSEMKLVQMKWHEACLSISAAILEILNAWENGVLAFESIQKITDNIKGKVCSLAVCAVAWLVAHVRMLGLDEREKSLQMIRQLAGPLFSENTLQFYNERVVIMNSILERMCADVLQQTATQIKFPSTGVDTMPYWNLLPPKRPIKEVLTDIFAKVLEKGWVDSRSIHIFDTLLHMGGVYWFCNNLIKELLKETRKEHTLRAVELLYSIFCLDMQQVTLVLLGHILPGLLTDSSKWHSLMDPPGTALAKLAVWCALSSYSSHKGQASTRQKKRHREDIEDYISLFPLDDVQPSKLMRLLSSNEDDANILSSPTDRSMSSSLSASQLHTVNMRDPLNRVLANLFLLISSILGSRTAGPHTQFVQWFMEECVDCLEQGGRGSVLQFMPFTTVSELVKVSAMSSPKVVLAITDLSLPLGRQVAAKAIAAL
B2: RFX1 (protein, UniProt P22670 1-979)
chain: MATQAYTELQAAPPPSQPPQAPPQAQPQPPPPPPPAAPQPPQPPTAAATPQPQYVTELQSPQPQAQPPGGQKQYVTELPAVPAPSQPTGAPTPSPAPQQYIVVTVSEGAMRASETVSEASPGSTASQTGVPTQVVQQVQGTQQRLLVQTSVQAKPGHVSPLQLTNIQVPQQALPTQRLVVQSAAPGSKGGQVSLTVHGTQQVHSPPEQSPVQANSSSSKTAGAPTGTVPQQLQVHGVQQSVPVTQERSVVQATPQAPKPGPVQPLTVQGLQPVHVAQEVQQLQQVPVPHVYSSQVQYVEGGDASYTASAIRSSTYSYPETPLYTQTASTSYYEAAGTATQVSTPATSQAVASSGSMPMYVSGSQVVASSTSTGAGASNSSGGGGSGGGGGGGGGGGGGGSGSTGGGGSGAGTYVIQGGYMLGSASQSYSHTTRASPATVQWLLDNYETAEGVSLPRSTLYCHYLLHCQEQKLEPVNAASFGKLIRSVFMGLRTRRLGTRGNSKYHYYGLRIKASSPLLRLMEDQQHMAMRGQPFSQKQRLKPIQKMEGMTNGVAVGQQPSTGLSDISAQVQQYQQFLDASRSLPDFTELDLQGKVLPEGVGPGDIKAFQVLYREHCEAIVDVMVNLQFTLVETLWKTFWRYNLSQPSEAPPLAVHDEAEKRLPKAILVLLSKFEPVLQWTKHCDNVLYQGLVEILIPDVLRPIPSALTQAIRNFAKSLESWLTHAMVNIPEEMLRVKVAAAGAFAQTLRRYTSLNHLAQAARAVLQNTAQINQMLSDLNRVDFANVQEQASWVCRCEDRVVQRLEQDFKVTLQQQNSLEQWAAWLDGVVSQVLKPYQGSAGFPKAAKLFLLKWSFYSSMVIRDLTLRSAASFGSFHLIRLLYDEYMYYLIEHRVAQAKGETPIAVMGEFANLATSLNPLDPDKDEEEEEEEESEDELPQDISLAAGGESPALGPETLEPPAKLARTDARGLFVQALPSS
B3: SAP130 (protein, UniProt Q9H0E3 1-1048)
chain: MGPPRHPQAGEIEAGGAGGGRRLQVEMSSQQFPRLGAPSTGLSQAPSQIANSGSAGLINPAATVNDESGRDSEVSAREHMSSSSSLQSREEKQEPVVVRPYPQVQMLSTHHAVASATPVAVTAPPAHLTPAVPLSFSEGLMKPPPKPTMPSRPIAPAPPSTLSLPPKVPGQVTVTMESSIPQASAIPVATISGQQGHPSNLHHIMTTNVQMSIIRSNAPGPPLHIGASHLPRGAAAAAVMSSSKVTTVLRPTSQLPNAATAQPAVQHIIHQPIQSRPPVTTSNAIPPAVVATVSATRAQSPVITTTAAHATDSALSRPTLSIQHPPSAAISIQRPAQSRDVTTRITLPSHPALGTPKQQLHTMAQKTIFSTGTPVAAATVAPILATNTIPSATTAGSVSHTQAPTSTIVTMTVPSHSSHATAVTTSNIPVAKVVPQQITHTSPRIQPDYPAERSSLIPISGHRASPNPVAMETRSDNRPSVPVQFQYFLPTYPPSAYPLAAHTYTPITSSVSTIRQYPVSAQAPNSAITAQTGVGVASTVHLNPMQLMTVDASHARHIQGIQPAPISTQGIQPAPIGTPGIQPAPLGTQGIHSATPINTQGLQPAPMGTQQPQPEGKTSAVVLADGATIVANPISNPFSAAPAATTVVQTHSQSASTNAPAQGSSPRPSILRKKPATDGAKPKSEIHVSMATPVTVSMETVSNQNNDQPTIAVPPTAQQPPPTIPTMIAAASPPSQPAVALSTIPGAVPITPPITTIAAAPPPSVTVGGSLSSVLGPPVPEIKVKEEVEPMDIMRPVSAVPPLATNTVSPSLALLANNLSMPTSDLPPGASPRKKPRKQQHVISTEEGDMMETNSTDDEKSTAKSLLVKAEKRKSPPKEYIDEEGVRYVPVRPRPPITLLRHYRNPWKAAYHHFQRYSDVRVKEEKKAMLQEIANQKGVSCRAQGWKVHLCAAQLLQLTNLEHDVYERLTNLQEGIIPKKKAATDDDLHRINELIQGNMQRCKLVMDQISEARDSMLKVLDHKDRVLKLLNKNGTVKKVSKLKRKEKV

For this assay, the target named is estrogen receptor alpha (ER) (human (endogenous in MCF-7 and ZR-75)) (UniProt P03372). Briefly: affinity purification with mass spectrometry; anti-ER antibody (Santa Cruz sc-8002) on Dynabeads Protein G, 1.5 mg lysate of MCF-7 or ZR-75 cells overnight at 4°C; cells starved, vehicle or 10 µM ERX-11 for 2 hr, then 10 nM E2 for 2 hr; the named proteins are ER binders whose co-precipitation was disrupted by ERX-11.
Take B1: the binding entry is reported as “binds”.
The value for B2 was “binds”; that for B3 was “binds”.
